No constants are given. Whether binding was seen depends on the method and setting. Some binding calls cover weakened binding; strength is not graded here.
How the values were obtained:
FPR2 receptor [1] = target: FPR2 receptor (UniProt P25090); assay: binding affinity assay, method not described
FPR1 = FPR1 (UniProt P21462); assay: affinity comparison, method not described
FPR2 receptor [2] = target: FPR2 receptor (UniProt P25090); assay: affinity comparison, method not described

Protein sequences, listed by entry. Tags and fused reporters are not part of them.
UniProt P25090: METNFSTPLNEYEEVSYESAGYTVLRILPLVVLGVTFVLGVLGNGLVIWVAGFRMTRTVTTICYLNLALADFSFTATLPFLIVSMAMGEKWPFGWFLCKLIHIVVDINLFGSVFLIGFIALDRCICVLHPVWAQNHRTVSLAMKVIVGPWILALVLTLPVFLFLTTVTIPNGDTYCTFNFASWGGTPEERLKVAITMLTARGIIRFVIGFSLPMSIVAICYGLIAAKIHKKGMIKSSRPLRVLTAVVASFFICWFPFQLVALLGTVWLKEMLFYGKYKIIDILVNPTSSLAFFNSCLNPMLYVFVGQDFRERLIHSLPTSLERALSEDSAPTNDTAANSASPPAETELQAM
UniProt P21462: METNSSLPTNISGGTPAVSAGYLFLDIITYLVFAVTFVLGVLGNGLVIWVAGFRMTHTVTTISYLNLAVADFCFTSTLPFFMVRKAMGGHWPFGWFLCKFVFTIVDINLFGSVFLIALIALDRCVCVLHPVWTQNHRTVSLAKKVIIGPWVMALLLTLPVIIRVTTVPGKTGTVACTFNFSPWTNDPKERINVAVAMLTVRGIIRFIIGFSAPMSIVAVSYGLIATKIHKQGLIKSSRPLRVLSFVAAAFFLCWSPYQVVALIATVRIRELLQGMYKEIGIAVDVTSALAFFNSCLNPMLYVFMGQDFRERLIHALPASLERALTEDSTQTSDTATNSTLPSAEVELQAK

| binding (FPR2 receptor [1]) | binding (FPR1) | binding (FPR2 receptor [2]) | Binder |
| --- | --- | --- | --- |
| binds | – | – | AMVSEFLKQAWFIENEEQEYVQTVKSSKGGPGSAVSPYPTFNPSSDVAA (amidated at its C-terminus) [UGP022, ANXA1(2-50)-NH2] |
| – | binds | binds | AMVSEFLKQAWFIENEEQEYVQTLKSSKGGPGSAVSPYPTFNPSSDVAA (amidated at its C-terminus) [UGP026, Leu25-ANXA1(2-50)-NH2] |
| – | binds | binds | AMVSEFLKQAWFIENEEQEYVQTLKSSKGGPGSAVSPYPTFNPSSDV (amidated at its C-terminus) [UGP025, Leu25-ANXA1(2-48)-NH2] |
| binds | – | – | AMVSEFLKQAWFIENEEQEYVQTVKSSKGGPGSAVSPYPTFNPSSDVAAG [UGP021, ANXA1(2-50) Gly51-OH] |

— US20150315256A1
